These results are taken from paper PMC12524789, “The Interplay Between CB2 and NMDA Receptors in Parkinson’s Disease” (International Journal of Molecular Sciences, 2025).

The chains behind the UniProt entries cited, without tags or fusion partners.
UniProt P34972: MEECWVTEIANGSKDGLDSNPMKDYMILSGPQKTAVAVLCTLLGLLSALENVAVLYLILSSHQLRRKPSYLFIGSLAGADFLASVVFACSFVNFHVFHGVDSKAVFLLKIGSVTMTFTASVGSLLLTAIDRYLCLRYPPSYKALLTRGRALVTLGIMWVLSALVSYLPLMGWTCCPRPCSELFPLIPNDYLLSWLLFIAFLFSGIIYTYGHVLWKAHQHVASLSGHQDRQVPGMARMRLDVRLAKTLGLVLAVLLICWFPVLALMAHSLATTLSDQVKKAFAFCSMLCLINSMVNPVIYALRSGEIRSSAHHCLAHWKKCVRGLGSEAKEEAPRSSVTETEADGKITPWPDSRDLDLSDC
UniProt Q92847: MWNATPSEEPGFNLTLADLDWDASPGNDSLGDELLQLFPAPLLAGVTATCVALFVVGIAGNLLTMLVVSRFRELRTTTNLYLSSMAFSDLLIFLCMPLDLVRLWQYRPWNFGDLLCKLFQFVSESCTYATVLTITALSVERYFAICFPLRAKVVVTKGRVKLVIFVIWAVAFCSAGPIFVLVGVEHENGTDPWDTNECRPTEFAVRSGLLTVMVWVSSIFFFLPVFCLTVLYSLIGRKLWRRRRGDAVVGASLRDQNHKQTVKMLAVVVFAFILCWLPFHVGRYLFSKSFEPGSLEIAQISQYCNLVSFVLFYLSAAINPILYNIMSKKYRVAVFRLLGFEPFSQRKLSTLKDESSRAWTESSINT

These are yes or no findings as the source states them, for the method shown. Binding seen in cells or lysates may run through a third protein. Some results given as binding are weak or reduced against the parent protein; the word gives no strength.

In experiment [1] the target is NMDA receptor of NR1A fused to Renilla luciferase (NR1A-Rluc) co-expressed with NR2B (human) (UniProt Q05586+Q13224). In words: FRET or BRET; BRET saturation in living HEK-293T cells: constant cDNA for NR1A-Rluc (0.5 µg) and NR2B (0.3 µg), increasing cDNA for CB2R-YFP (0 to 2.5 µg) or GHSR1A-YFP (0 to 10 µg); vehicle-treated; 5 µM coelenterazine H, HBSS pH 7.4. In general terms: BRET reads energy transfer from a luciferase to a nearby fluorophore.

In experiment [2] the target is Cannabinoid receptor 2 fused to the yellow fluorescent protein (CB2R-YFP) (human) (UniProt P34972). As to the kind of experiment: condition: only cells treated with 10 µg/L α-syn fibrils for 48 h; FRET or BRET; β-arrestin II recruitment by BRET as a3 (100 nM JWH-133), in cells treated with α-syn fibrils for 48 h.
The target is the same in experiment [3]. As to the kind of experiment: condition: only cells treated with 10 µg/L α-syn fibrils for 48 h, NR1 and NR2B co-expressed; FRET or BRET; β-arrestin II recruitment by BRET as a5 (100 nM JWH-133), in cells treated with α-syn fibrils for 48 h.
For experiment [4] the target is unchanged. As to the kind of experiment: FRET or BRET; β-arrestin II recruitment by BRET in HEK-293T cells with CB2R-YFP, NR1, NR2B and β-arrestin II-Rluc; 100 nM JWH-133; NMDA alone induced no response.
Experiment [5] has the same target. As to the kind of experiment: condition: only co-treatment with 15 µM NMDA, NR1 and NR2B co-expressed; FRET or BRET; β-arrestin II recruitment by BRET as a5, with 100 nM JWH-133 and 15 µM NMDA together.
Experiment [6] shares this target. In words: FRET or BRET; β-arrestin II recruitment by BRET in HEK-293T cells with CB2R-YFP (1.2 µg cDNA) and β-arrestin II-Rluc (0.4 µg cDNA); 100 nM JWH-133; pre-treatment with 1 µM SR144528 counteracted the signal.

With “Ghrelin receptor GHSR1A fused to the yellow fluorescent protein (GHSR1A-YFP) (from UniProt Q92847 1-366)”, the binding entry in experiment [1] is listed as “no binding”.
As for “β-arrestin II fused to Renilla luciferase (β-arrestin II-Rluc) (from UniProt P32121 1-409)”, the binding result is listed as “no binding” in experiment [2]; “no binding” in experiment [3]; “binds” in experiment [4]; “no binding” in experiment [5]; “binds” in experiment [6].
